Test results from PMC6069705.

Target: human tau P301L 4R0N (rTg4510 transgene) (human)
Assay: affinity purification with mass spectrometry; tau immunoprecipitated from 1 mg cortex lysate (RIPA buffer) of 2.5 month old induced or uninduced (doxycycline) rTg4510 mice with 10 ug Tau13 immobilised on Pierce Direct IP columns; eluates run on a gel, LC-MS/MS; proteins pulled down from MAPT-/- mice removed; n = 4/group

- binding: binds
B1: hnRNPL (protein, UniProt Q8R081 1-586)
chain: MSRRLLPRAEKRRRRLEQRQQPDEQLRRAGAMVKMAAAGGGGGGGRYYGGGNEGGRAPKRLKTENAGDQHGGGGGGGSGAAGGGGGENYDDPHKTPASPVVHIRGLIDGVVEADLVEALQEFGPISYVVVMPKKRQALVEFEDVLGACNAVNYAADNQIYIAGHPAFVNYSTSQKISRPGDSDDSRSVNSVLLFTILNPIYSITTDVLYTICNPCGPVQRIVIFRKNGVQAMVEFDSVQSAQRAKASLNGADIYSGCCTLKIEYAKPTRLNVFKNDQDTWDYTNPNLSGQGDPGSNPNKRQRQPPLLGDHPAEYGGPHGGYHSHYHDEGYGPPPPHYEGRRMGPPVGGHRRGPSRYGPQYGHPPPPPPPPDYGPHADSPVLMVYGLDQSKMNCDRVFNVFCLYGNVEKVKFMKSKPGAAMVEMADGYAVDRAITHLNNNFMFGQKMNVCVSKQPAIMPGQSYGLEDGSCSYKDFSESRNNRFSTPEQAAKNRIQHPSNVLHFFNAPLEVTEENFFEICDELGVKRPTSVKVFSGKSERSSSGLLEWDSKSDALETLGFLNHYQMKNPNGPYPYTLKLCFSTAQHAS

- binding: binds
B2: hnRNPR (protein, UniProt Q8VHM5 1-632)
chain: MANQVNGNAVQLKEEEEPMDTSSVTHTEHYKTLIEAGLPQKVAERLDEIFQTGLVAYVDLDERAIDALREFNEEGALSVLQQFKESDLSHVQNKSAFLCGVMKTYRQREKQGSKVQESTKGPDEAKIKALLERTGYTLDVTTGQRKYGGPPPDSVYSGVQPGIGTEVFVGKIPRDLYEDELVPLFEKAGPIWDLRLMMDPLSGQNRGYAFITFCGKEAAQEAVKLCDSYEIRPGKHLGVCISVANNRLFVGSIPKNKTKENILEEFSKVTEGLVDVILYHQPDDKKKNRGFCFLEYEDHKSAAQARRRLMSGKVKVWGNVVTVEWADPVEEPDPEVMAKVKVLFVRNLATTVTEEILEKSFSEFGKLERVKKLKDYAFVHFEDRGAAVKAMDEMNGKEIEGEEIEIVLAKPPDKKRKERQAARQASRSTAYEDYYYHPPPRMPPPMRGRGRGGRGGYGYPPDYYGYEDYYDDYYGYDYHDYRGGYEDPYYGYDDGYAVRGRGGGRGGRGAPPPPRGRGAPPPRGRAGYSQRGAPLGPPRGSRGGRGGPAQQQRGRGSRGARGNRGGNVGGKRKADGYNQPDSKRRQTNNQQNWGSQPIAQQPLQQGGDYSGNYGYNNDNQEFYQDTYGQQWK

- binding: binds
B3: HNRNPA0 (protein, UniProt Q9CX86 1-305)
chain: MENSQLCKLFIGGLNVQTSESGLRGHFEAFGTLTDCVVVVNPQTKRSRCFGFVTYSNVEEADAAMAASPHAVDGNTVELKRAVSREDSARPGAHAKVKKLFVGGLKGDVAEGDLIEHFSQFGAVEKAEIIADKQSGKKRGFGFVYFQSHDAADKAAVVKFHPIQGHRVEVKKAVPKEDIHAGGGGARAARGGRGGGRGRGGGGGGGGRDQNGLAKGGGGGGGGYNSYGGYGGYGAYGGGGGGGGSYGGSDYGNGFGGFGSYSQHQSSYGPMKSGGGGGGGGSWGGRSNSGPYRGGYGGGYGGGSF

Results are given in words; binding and its absence hold for the method and conditions named. In cells and extracts the contact can be indirect. These calls come from enrichment with a bait or labelling near it, and not all partners need be listed. Each block holds one binder with its values, some of them ahead of it.
